No constants are given. Whether binding was seen depends on the method and setting. For part of these data: Binding seen in cells or lysates may run through a third protein. Some binding calls cover weakened binding; strength is not graded here. For part of these data: Tags and fused reporters may be left off the sequences shown. Each block holds one binder with its values, some of them ahead of it.
Legend:
[1] = molecular target: T1, endogenous Hsp20 of neonatal rat cardiac myocytes (rat (endogenous in neonatal rat cardiac myocytes)) (UniProt P97541); assay: co-IP; disruption of the co-IP of endogenous Hsp20 and PKD1 of neonatal cardiac myocytes by the synthetic cell-permeable disruptor peptide, 10 uM; only the binder purified
T1 sequence: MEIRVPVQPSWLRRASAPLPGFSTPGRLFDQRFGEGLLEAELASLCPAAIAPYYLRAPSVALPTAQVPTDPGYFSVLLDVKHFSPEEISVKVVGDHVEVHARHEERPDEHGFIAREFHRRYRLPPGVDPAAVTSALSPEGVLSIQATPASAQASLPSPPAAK

[2] = molecular target: T1, endogenous Hsp20 of neonatal rat cardiac myocytes (rat (endogenous in neonatal rat cardiac myocytes)); assay: co-IP; endogenous Hsp20 and PKD1 of neonatal cardiac myocytes treated with cell-permeable disruptor (DIS) or control (CTR) peptide, 10 uM
[3] = molecular target: T1, endogenous Hsp20 of neonatal rat cardiac myocytes (rat (endogenous in neonatal rat cardiac myocytes)); assay: proximity ligation; Duolink PLA with primary antibodies against PKD1 and HSP20 in fixed neonatal cardiac myocytes; basal, ISO, control peptide + ISO, disruptor peptide + ISO
[4] = molecular target: T1, endogenous Hsp20 of neonatal rat cardiac myocytes (rat (endogenous in neonatal rat cardiac myocytes)); assay: co-IP; endogenous proteins of neonatal rat cardiac myocyte lysate; HSP20 or PKD1 antibodies, Protein A beads, 4 C overnight; isotype-matched IgG as mock IP
[5] = molecular target: T2, His-tagged HSP20 protein (UniProt O14558 1-160); assay: pull-down; equal molar purified recombinant His or His-HSP20 and PKD1 mixed in 3T3 lysis buffer, 1 h at 4 C, captured on Ni-NTA Superflow resin, washed three times, blotted with anti-PKD1; both purified
T2 construct: HSP20 (heat shock protein 20), open reading frame from Ultimate ORF clone IOH57317 in pENTR221, moved into pDEST-17 by Gateway cloning; also called His-HSP20; His-Hsp20; source: E. coli, purified (Ni-NTA Superflow resin); not shown: His, N-terminal, kept
T2 sequence (looked up): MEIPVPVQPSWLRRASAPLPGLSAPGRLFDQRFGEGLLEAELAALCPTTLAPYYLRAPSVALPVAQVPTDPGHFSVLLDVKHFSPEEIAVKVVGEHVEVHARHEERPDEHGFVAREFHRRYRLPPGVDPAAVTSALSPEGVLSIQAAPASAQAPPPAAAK

[6] = molecular target: T3, Hsp20-V5 (UniProt O14558); assay: co-IP; HEK293 cells transiently transfected with V5-HSP20 and GFP-PKD1; V5 or GFP antibodies, Protein A beads, 4 C overnight; isotype-matched IgG as mock IP
T3 sequence: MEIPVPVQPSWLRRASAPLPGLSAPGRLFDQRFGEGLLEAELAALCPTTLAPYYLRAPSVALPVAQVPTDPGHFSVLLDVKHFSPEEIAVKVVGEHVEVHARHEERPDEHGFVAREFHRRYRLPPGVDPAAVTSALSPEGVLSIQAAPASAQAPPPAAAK

binding [1]: binds
Binder: GRDVAIKIIDKLRFPTKQESQLRNE (N-terminal stearoyl group (CH3(CH2)16COOH)) [Hsp20-PKD1 disruptor peptide]

binding [2]: binds
binding [3]: binds
binding [4]: binds
B1: endogenous PKD1 of neonatal rat cardiac myocytes (protein, UniProt Q9WTQ1 1-918)
chain: MSAPPLLRPPSPLLPAAAAVAAAAAALVPGSGPAPFPAPGAAPAGGISFHLQIGLSREPVLLLQDSSGDYSLAHVREMACSIVDQKFPECGFYGLYDKILLFRHDPASENILQLVKIASDIQEGDLIEVVLSASATFEDFQIRPHALFVHSYRAPAFCDHCGEMLWGLVRQGLKCEGCGLNYHKRCAFKIPNNCSGVRRRRLSNVSLTGLGTVRTASAEFSTSAPDEPLLSPVSPGFEQKSPSESFIGREKRSNSQSYVGRPIQLDKLLMSKVKVPHTFVIHSYTRPTVCQFCKKLLKGLFRQGLQCKDCRFNCHKRCAPKVPNNCLGEVTINGELLSPGAESDVVMEEGSDDNDSERNSGLMDDMDEAMVQDTEMALAEGQSDGAEMQDPDADQEDSNRTISPSTSNNIPLMRVVQSVKHTKRRSSTVMKEGWMVHYTSKDTLRKRHYWRLDSKSITLFQNDTGSRYYKEIPLSEILCLEPAKPSALIPTGANPHCFEITTANVVYYVGENVVNPSSPPPNNSVPPSGIGTDVARMWEVAIQHALMPVIPKGSSVGSGTNSHKDISVSISVSNSQIQENVDISTVYQIFPDEVLGSGQFGIVYGGKHRKTGRDVAIKIIDKLRFPTKQESQLRNEVAILQNLHHPGVVNLECMFETPERVFVVMEKLHGDMLEMILSSEKGRLPEHITKFLITQILVALRHLHFKNIVHCDLKPENVLLASADPFPQVKLCDFGFARIIGEKSFRRSVVGTPAYLAPEVLRNKGYNRSLDMWSVGVIIYVSLSGTFPFNEDEDIHDQIQNAAFMYPPNPWKEISHEAIDLINNLLQVKMRKRYSVDKTLSHPWLQDYQTWLDLRELECRIGERYITHESDDSRWEQYAGEQGLQYPAHLINLSASHGDSPEAEEREMKALSERVSIL

binding [5]: binds
B2: PKD1 (Abcam), purified recombinant (protein, UniProt Q15139 1-912)
chain: MSAPPVLRPPSPLLPVAAAAAAAAAALVPGSGPGPAPFLAPVAAPVGGISFHLQIGLSREPVLLLQDSSGDYSLAHVREMACSIVDQKFPECGFYGMYDKILLFRHDPTSENILQLVKAASDIQEGDLIEVVLSASATFEDFQIRPHALFVHSYRAPAFCDHCGEMLWGLVRQGLKCEGCGLNYHKRCAFKIPNNCSGVRRRRLSNVSLTGVSTIRTSSAELSTSAPDEPLLQKSPSESFIGREKRSNSQSYIGRPIHLDKILMSKVKVPHTFVIHSYTRPTVCQYCKKLLKGLFRQGLQCKDCRFNCHKRCAPKVPNNCLGEVTINGDLLSPGAESDVVMEEGSDDNDSERNSGLMDDMEEAMVQDAEMAMAECQNDSGEMQDPDPDHEDANRTISPSTSNNIPLMRVVQSVKHTKRKSSTVMKEGWMVHYTSKDTLRKRHYWRLDSKCITLFQNDTGSRYYKEIPLSEILSLEPVKTSALIPNGANPHCFEITTANVVYYVGENVVNPSSPSPNNSVLTSGVGADVARMWEIAIQHALMPVIPKGSSVGTGTNLHRDISVSISVSNCQIQENVDISTVYQIFPDEVLGSGQFGIVYGGKHRKTGRDVAIKIIDKLRFPTKQESQLRNEVAILQNLHHPGVVNLECMFETPERVFVVMEKLHGDMLEMILSSEKGRLPEHITKFLITQILVALRHLHFKNIVHCDLKPENVLLASADPFPQVKLCDFGFARIIGEKSFRRSVVGTPAYLAPEVLRNKGYNRSLDMWSVGVIIYVSLSGTFPFNEDEDIHDQIQNAAFMYPPNPWKEISHEAIDLINNLLQVKMRKRYSVDKTLSHPWLQDYQTWLDLRELECKIGERYITHESDDLRWEKYAGEQGLQYPTHLINPSASHSDTPETEETEMKALGERVSIL

binding [6]: binds
B3: GFP-PKD1 (protein, UniProt Q15139 1-912)
chain: MSAPPVLRPPSPLLPVAAAAAAAAAALVPGSGPGPAPFLAPVAAPVGGISFHLQIGLSREPVLLLQDSSGDYSLAHVREMACSIVDQKFPECGFYGMYDKILLFRHDPTSENILQLVKAASDIQEGDLIEVVLSASATFEDFQIRPHALFVHSYRAPAFCDHCGEMLWGLVRQGLKCEGCGLNYHKRCAFKIPNNCSGVRRRRLSNVSLTGVSTIRTSSAELSTSAPDEPLLQKSPSESFIGREKRSNSQSYIGRPIHLDKILMSKVKVPHTFVIHSYTRPTVCQYCKKLLKGLFRQGLQCKDCRFNCHKRCAPKVPNNCLGEVTINGDLLSPGAESDVVMEEGSDDNDSERNSGLMDDMEEAMVQDAEMAMAECQNDSGEMQDPDPDHEDANRTISPSTSNNIPLMRVVQSVKHTKRKSSTVMKEGWMVHYTSKDTLRKRHYWRLDSKCITLFQNDTGSRYYKEIPLSEILSLEPVKTSALIPNGANPHCFEITTANVVYYVGENVVNPSSPSPNNSVLTSGVGADVARMWEIAIQHALMPVIPKGSSVGTGTNLHRDISVSISVSNCQIQENVDISTVYQIFPDEVLGSGQFGIVYGGKHRKTGRDVAIKIIDKLRFPTKQESQLRNEVAILQNLHHPGVVNLECMFETPERVFVVMEKLHGDMLEMILSSEKGRLPEHITKFLITQILVALRHLHFKNIVHCDLKPENVLLASADPFPQVKLCDFGFARIIGEKSFRRSVVGTPAYLAPEVLRNKGYNRSLDMWSVGVIIYVSLSGTFPFNEDEDIHDQIQNAAFMYPPNPWKEISHEAIDLINNLLQVKMRKRYSVDKTLSHPWLQDYQTWLDLRELECKIGERYITHESDDLRWEKYAGEQGLQYPTHLINPSASHSDTPETEETEMKALGERVSIL

— paper PMC4356135, “Small heat shock protein 20 (Hsp20) facilitates nuclear import of protein kinase D 1 (PKD1) during cardiac hypertrophy” (Cell Communication and Signaling : CCS, 2015)
